Results are given in words; binding and its absence hold for the method and conditions named. In cells and extracts the contact can be indirect. Some entries that bind do so weakly or less than the wild type.

The chains behind the UniProt entries cited, without tags or fusion partners.
UniProt Q61188: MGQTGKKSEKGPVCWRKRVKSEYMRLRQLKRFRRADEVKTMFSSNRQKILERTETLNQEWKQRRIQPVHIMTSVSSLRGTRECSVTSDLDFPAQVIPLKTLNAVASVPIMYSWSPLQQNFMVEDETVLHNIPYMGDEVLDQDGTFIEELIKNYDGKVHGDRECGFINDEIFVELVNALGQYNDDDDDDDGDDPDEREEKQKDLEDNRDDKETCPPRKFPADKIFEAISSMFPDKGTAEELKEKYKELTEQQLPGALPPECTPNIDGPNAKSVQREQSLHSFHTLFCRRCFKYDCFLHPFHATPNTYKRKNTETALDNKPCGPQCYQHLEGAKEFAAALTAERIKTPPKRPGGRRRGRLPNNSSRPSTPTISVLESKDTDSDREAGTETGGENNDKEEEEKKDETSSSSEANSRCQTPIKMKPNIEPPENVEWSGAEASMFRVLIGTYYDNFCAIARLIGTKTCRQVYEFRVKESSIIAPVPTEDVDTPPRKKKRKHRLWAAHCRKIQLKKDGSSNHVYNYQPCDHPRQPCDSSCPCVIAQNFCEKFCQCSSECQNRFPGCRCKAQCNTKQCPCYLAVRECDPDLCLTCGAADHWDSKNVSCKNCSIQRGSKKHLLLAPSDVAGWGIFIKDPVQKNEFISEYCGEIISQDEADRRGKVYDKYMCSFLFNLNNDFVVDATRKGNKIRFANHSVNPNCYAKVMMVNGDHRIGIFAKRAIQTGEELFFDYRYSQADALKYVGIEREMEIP
UniProt Q02395: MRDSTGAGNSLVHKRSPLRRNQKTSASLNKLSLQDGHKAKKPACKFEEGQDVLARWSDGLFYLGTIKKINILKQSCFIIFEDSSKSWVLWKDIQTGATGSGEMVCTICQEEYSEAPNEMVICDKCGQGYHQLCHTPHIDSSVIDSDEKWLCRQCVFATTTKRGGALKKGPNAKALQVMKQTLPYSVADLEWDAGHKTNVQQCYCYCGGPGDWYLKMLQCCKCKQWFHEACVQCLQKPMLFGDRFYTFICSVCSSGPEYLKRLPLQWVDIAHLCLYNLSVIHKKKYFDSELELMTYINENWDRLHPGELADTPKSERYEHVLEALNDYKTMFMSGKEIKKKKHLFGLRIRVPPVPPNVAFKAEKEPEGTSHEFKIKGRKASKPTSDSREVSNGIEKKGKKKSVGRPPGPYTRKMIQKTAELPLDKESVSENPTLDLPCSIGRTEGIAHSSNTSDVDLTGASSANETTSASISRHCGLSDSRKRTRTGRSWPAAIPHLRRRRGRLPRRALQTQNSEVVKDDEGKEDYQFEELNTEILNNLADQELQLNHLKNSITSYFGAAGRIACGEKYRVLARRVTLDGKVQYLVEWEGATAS

What all share (experiment): co-IP; immunoprecipitation of endogenous EZH2, JARID2 and AEBP2 in E14 mESCs, immunoblot
(In western blotting, separated proteins are transferred to a membrane and probed.)

Assay [1] addresses T1, JARID2 (endogenous) (mouse (endogenous in E14 mESCs)) (UniProt Q62315).
T1 sequence: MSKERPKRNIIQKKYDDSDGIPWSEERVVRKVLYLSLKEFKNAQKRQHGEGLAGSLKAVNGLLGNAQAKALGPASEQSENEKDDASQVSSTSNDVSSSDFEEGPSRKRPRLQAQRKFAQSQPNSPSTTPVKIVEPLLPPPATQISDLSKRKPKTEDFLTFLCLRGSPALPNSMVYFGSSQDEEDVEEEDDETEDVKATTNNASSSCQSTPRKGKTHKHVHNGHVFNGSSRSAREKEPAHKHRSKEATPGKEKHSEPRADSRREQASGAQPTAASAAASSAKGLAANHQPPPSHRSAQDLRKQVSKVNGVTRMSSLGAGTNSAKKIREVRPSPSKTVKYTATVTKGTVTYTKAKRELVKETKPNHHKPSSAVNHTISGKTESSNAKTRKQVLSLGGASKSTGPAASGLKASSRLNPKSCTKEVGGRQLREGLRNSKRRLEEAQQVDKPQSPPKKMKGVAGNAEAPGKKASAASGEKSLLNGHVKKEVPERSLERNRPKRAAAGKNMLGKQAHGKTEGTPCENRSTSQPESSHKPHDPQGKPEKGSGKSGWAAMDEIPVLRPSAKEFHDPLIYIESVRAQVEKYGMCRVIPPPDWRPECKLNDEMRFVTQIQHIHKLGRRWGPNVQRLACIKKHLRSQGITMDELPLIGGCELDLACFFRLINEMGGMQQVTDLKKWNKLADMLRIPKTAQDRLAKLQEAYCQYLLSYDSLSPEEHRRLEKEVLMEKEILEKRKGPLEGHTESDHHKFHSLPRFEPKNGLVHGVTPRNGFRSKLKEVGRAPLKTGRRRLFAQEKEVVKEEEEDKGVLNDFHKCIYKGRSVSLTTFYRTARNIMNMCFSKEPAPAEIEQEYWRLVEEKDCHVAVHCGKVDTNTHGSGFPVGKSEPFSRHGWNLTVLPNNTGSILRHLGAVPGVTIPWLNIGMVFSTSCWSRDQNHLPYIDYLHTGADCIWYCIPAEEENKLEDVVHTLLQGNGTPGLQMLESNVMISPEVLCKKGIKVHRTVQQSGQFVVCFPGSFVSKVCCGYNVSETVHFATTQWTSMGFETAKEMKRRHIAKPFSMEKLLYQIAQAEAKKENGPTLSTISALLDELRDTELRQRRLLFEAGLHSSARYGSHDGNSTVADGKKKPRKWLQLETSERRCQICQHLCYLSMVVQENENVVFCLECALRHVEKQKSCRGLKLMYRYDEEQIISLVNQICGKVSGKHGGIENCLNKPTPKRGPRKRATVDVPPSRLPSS

The target of assay [2] is T2, AEBP2 (endogenous) (mouse (endogenous in E14 mESCs)) (UniProt Q9Z248).
T2 sequence: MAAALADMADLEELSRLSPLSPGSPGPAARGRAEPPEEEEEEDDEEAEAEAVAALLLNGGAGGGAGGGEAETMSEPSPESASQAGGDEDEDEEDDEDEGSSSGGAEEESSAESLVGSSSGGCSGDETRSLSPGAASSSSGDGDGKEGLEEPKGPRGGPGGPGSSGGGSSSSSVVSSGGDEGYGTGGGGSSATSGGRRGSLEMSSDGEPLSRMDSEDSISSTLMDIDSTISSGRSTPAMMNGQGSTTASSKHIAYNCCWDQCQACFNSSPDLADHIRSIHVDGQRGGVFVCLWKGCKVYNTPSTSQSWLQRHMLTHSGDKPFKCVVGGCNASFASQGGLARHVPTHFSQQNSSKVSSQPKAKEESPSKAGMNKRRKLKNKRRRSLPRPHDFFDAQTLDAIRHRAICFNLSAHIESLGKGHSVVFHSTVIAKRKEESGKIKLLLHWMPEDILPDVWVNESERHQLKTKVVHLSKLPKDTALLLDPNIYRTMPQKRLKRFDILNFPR

For assay [3], the target named is EZH2 (endogenous) (mouse (endogenous in E14 mESCs)) (UniProt Q61188).

With “PCL2 (MTF2), endogenous (from UniProt Q02395 1-593)”, the results for the binding entry in assay [1], in assay [2] and in assay [3] were “binds weakly”, “no binding” and “binds”, respectively.
